Measurements reported in PubChem BioAssay AID652259 (Drosophila RNAi Screening Center, 2013)
In all, the deposit lists about 22,000 reagents; shown is an unselected part of those with a known target gene and a result. Over the whole deposit, 233 (1.1%) were called active. 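Light values are raw, unnormalised plate reads; the ratio scores behind the reporter calls were not deposited.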 Unmarked entries are inactive. No sequences are given here. Not stated in the record: the amount of reagent, the time to read-out, the dose of the treatment.

Assay: 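Genome-wide hunt for genes that control Wingless pathway activity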 (primary screen)
Cells: Drosophila clone 8 imaginal disc epithelial cells
Reagents: long dsRNA against Drosophila genes
Conditions: pathway stimulated by co-transfected Wingless expression plasmid
Detection: 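Firefly luciferase from a tcf-site Wingless reporter, measured alongside co-transfected Renilla luciferase that tracks transfection; pathway stimulated by a Wingless plasmid; the firefly-to-Renilla ratio is not deposited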
Scale: firefly reporter light: higher = more Wg reporter light, before normalisation; Renilla control light: higher = more transfected or surviving cells
Hit rule: 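Strong candidates differ from their plate mean by at least two out of four per-plate statistical tests; weak candidates meet just one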
Calls: active = candidate regulator (raises or lowers reporter); inactive = not a candidate

no.	Gene	amplicon	reporter change call, replicate 1	firefly reporter light, replicate 1	firefly reporter light, replicate 2	Renilla control light, replicate 1	Renilla control light, replicate 2
1	luna	DRSC05253		21403		13783	
2	luna	DRSC06663		2548	7905	273	848
3	luna	DRSC07336		4578	16166	1536	5184
4	CG32170	DRSC09452		2950		1690	
5	CG6254	DRSC16002		5864		2403	
6	Acer	DRSC01852		14549		3024	
7	mRpL52	DRSC06585		3589	8563	1088	3265
8	Prosalpha3T	DRSC15226		6281		2952	
9	shi	DRSC20373		2744	12678	571	1584
10	Prosbeta5R1	DRSC04581		1952	7506	528	3408
11	CG30075	DRSC05484		17892		14912	
12	Mnr	DRSC20549		16005		10518	
13	Mnr	DRSC20550		17612	7.32e5	11584	3.90e5
14	Mnr	DRSC22441		3.34e5	3.83e5	1.70e5	47901
15	CG31871	DRSC02567		2898	8176	1148	2987
16	CG31871	DRSC02571		1857	7051	851	2377
17	CG13060	DRSC09943		9172		2967	
18	Larp4B	DRSC08192	Wg reporter activity raised	5412		1275	
19	pkm	DRSC19674		3628	9336	1239	3857
20	CG12477	DRSC09886		4643		2101	
21	ras	DRSC18825		4941	5736	1149	2044
22	CG32457	DRSC11596		4352		1735	
23	CG32457	DRSC21722		3.36e5	2.87e5	1.23e5	1.00e5
24	Psn	DRSC11743		11813		4644	
25	CG9062	DRSC07327		7456		2827	
26	CG31178	DRSC14590		38325		8100	
27	Ir47a	DRSC06215		1917	6950	524	2791
28	CG18063	DRSC01968		2458	4818	800	2280
29	CG30273	DRSC22059		4.78e5	4.96e5	1.60e5	1.56e5
30	CG34006 (retired record)	DRSC13817		3431		1936	
31	Alp1	DRSC11781		5378		2860	
32	CG13616	DRSC14619		19082		15130	
33	CG2493	DRSC02707		10486		3290	
34	Wdr62	DRSC00081		27632		12955	
35	Wdr62	DRSC00082		18441		11459	
36	Wdr62	DRSC00701	Wg reporter activity raised (active)	15196		2419	
37	Wdr62	DRSC21913		4.87e5	5.08e5	1.24e5	1.12e5
38	Ypel	DRSC17996		1501	6931	752	2071
39	neo	DRSC16316		2595	6141	1222	2061
40	Ir84a	DRSC12510		7434		2792	
41	Muc68Ca	DRSC10312		4113		997	
42	Muc68Ca	DRSC10313		4128		2306	
43	CG11961	DRSC06099		16103		4897	
44	CG13443	DRSC06403		6596		2428	
45	NtR	DRSC04628		3765	9349	714	3272
46	Naxe	DRSC18251		15452		8075	
47	CG17896	DRSC18502		1862	5669	950	2432
48	eater	DRSC15969		11068		4144	
49	eater	DRSC22254		4.54e5	4.29e5	1.78e5	1.83e5

Called active (from the list above):
Gene	amplicon	reporter change call, replicate 1	firefly reporter light, replicate 1	firefly reporter light, replicate 2	Renilla control light, replicate 1	Renilla control light, replicate 2
Wdr62	DRSC00701	Wg reporter activity raised (active)	15196		2419	
